Values of other authors as cited in patent US20180271820A1, “METHODS OF TREATING HEART FAILURE” (priority 2015, published 2018).
For at least one compound, name, drawing or mass did not settle the structure.

System: Nrf2 and the Nrf2-target gene Heme-oxygenase 1 (HO-1)
Conditions: cited from earlier work

In the case of `CC/C=C\C/C=C\C/C=C\C/C=C\C/C=C\C/C=C\CCC(=O)O` [DHA, docosahexaenoic acid], the “induction of Nrf2 and HO-1” value is given as “induce”.
